The target of this test is Flag-TBK1 N-terminal kinase domain (KD). As to the kind of experiment: co-IP.

Results are given in words; binding and its absence hold for the method and conditions named. In cells and extracts the contact can be indirect. Binding calls can cover weak binding; strength is not graded here. Tags and fused reporters may be left off the sequences shown.

B1: V5-tagged scavenger receptor A (SRA) (receptor, UniProt P21757 1-451)
chain: MEQWDHFHNQQEDTDSCSESVKFDARSMTALLPPNPKNSPSLQEKLKSFKAALIALYLLVFAVLIPLIGIVAAQLLKWETKNCSVSSTNANDITQSLTGKGNDSEEEMRFQEVFMEHMSNMEKRIQHILDMEANLMDTEHFQNFSMTTDQRFNDILLQLSTLFSSVQGHGNAIDEISKSLISLNTTLLDLQLNIENLNGKIQENTFKQQEEISKLEERVYNVSAEIMAMKEEQVHLEQEIKGEVKVLNNITNDLRLKDWEHSQTLRNITLIQGPPGPPGEKGDRGPTGESGPRGFPGPIGPPGLKGDRGAIGFPGSRGLPGYAGRPGNSGPKGQKGEKGSGNTLTPFTKVRLVGGSGPHEGRVEILHSGQWGTICDDRWEVRVGQVVCRSLGYPGVQAVHKAAHFGQGTGPIWLNEVFCFGRESSIEECKIRQWGTRACSHSEDAGVTCTL
For the molecule B1, the binding entry was “binds”.

Source of the values: PMC9769732.
